No constants are given. Whether binding was seen depends on the method and setting. In cells and extracts the contact can be indirect. Some binding calls cover weakened binding; strength is not graded here.
How the values were obtained:
[1] = molecular target: LNK (human (endogenous in primary erythroblasts)) (UniProt Q9UQQ2); test: co-IP; endogenous proteins in lysates of human primary erythroblasts after DMSO or 0.5 μM ACY-1215 exposure; IP buffer with 1% NP40, 150 mM NaCl, 5 mM EDTA, Tris HCl pH 8; antibody against 14-3-3ζ or LNK (2 μg) overnight at 4°C, μMACS Protein G Microbeads; partner detected by immunoblot
[2] = molecular target: 14‐3‐3ζ (human (endogenous in primary erythroblasts)) (UniProt P63104); test: as above

By UniProt entry, the sequences of proteins in these tests, tags left out.
UniProt Q9UQQ2: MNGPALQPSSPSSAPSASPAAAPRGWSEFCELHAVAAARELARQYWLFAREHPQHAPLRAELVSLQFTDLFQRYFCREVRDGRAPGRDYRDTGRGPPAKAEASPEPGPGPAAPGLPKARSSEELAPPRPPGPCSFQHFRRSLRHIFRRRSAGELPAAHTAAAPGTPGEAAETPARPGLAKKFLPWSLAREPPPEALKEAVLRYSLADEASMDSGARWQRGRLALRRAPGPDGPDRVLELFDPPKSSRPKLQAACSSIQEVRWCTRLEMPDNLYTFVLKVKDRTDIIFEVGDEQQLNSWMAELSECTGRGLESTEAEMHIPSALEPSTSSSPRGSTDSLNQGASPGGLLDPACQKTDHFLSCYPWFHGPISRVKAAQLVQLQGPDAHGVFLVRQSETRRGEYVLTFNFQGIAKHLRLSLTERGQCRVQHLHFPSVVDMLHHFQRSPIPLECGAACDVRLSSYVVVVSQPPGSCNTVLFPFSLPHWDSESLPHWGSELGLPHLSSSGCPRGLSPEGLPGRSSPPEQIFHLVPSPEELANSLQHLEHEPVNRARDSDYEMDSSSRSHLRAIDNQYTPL
UniProt P63104: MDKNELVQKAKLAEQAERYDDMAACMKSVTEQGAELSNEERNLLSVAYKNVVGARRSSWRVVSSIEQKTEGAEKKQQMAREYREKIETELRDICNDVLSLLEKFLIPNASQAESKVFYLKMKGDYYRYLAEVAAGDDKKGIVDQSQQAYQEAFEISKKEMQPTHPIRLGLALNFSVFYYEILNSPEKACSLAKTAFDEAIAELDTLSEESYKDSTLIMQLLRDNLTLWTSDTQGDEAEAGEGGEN

14‐3‐3ζ (from UniProt P63104 1-245)
binding [1]: binds

LNK (from UniProt Q9UQQ2 1-575)
binding [2]: binds
